The test addresses T1, Pituitary tumor-transforming gene 1 (PTTG1) (human (endogenous in JKT-1, SEM-1 and TCAM2)) (UniProt O95997).
T1 sequence: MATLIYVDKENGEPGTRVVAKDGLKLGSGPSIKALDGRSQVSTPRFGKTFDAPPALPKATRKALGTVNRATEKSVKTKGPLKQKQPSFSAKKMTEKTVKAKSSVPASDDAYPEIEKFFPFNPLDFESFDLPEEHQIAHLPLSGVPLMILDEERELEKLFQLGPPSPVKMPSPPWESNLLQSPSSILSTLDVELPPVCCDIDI
Briefly: affinity purification with mass spectrometry; PTTG1 immunoprecipitated overnight at 4 °C from TCAM2 lysate with anti-PTTG1 antibody cross-linked to Tosyl-activated Dynabeads (lysis buffer Hepes 20 mM, NaCl 250 mM, EDTA 0.5 mM, Nonidet P-40 0.25%); SDS-PAGE, band at 250 kDa cut out, in-gel tryptic digestion, HPLC-ESI-MS/MS.

Amino acid sequences for entries named in this document (tags omitted).
UniProt Q01082: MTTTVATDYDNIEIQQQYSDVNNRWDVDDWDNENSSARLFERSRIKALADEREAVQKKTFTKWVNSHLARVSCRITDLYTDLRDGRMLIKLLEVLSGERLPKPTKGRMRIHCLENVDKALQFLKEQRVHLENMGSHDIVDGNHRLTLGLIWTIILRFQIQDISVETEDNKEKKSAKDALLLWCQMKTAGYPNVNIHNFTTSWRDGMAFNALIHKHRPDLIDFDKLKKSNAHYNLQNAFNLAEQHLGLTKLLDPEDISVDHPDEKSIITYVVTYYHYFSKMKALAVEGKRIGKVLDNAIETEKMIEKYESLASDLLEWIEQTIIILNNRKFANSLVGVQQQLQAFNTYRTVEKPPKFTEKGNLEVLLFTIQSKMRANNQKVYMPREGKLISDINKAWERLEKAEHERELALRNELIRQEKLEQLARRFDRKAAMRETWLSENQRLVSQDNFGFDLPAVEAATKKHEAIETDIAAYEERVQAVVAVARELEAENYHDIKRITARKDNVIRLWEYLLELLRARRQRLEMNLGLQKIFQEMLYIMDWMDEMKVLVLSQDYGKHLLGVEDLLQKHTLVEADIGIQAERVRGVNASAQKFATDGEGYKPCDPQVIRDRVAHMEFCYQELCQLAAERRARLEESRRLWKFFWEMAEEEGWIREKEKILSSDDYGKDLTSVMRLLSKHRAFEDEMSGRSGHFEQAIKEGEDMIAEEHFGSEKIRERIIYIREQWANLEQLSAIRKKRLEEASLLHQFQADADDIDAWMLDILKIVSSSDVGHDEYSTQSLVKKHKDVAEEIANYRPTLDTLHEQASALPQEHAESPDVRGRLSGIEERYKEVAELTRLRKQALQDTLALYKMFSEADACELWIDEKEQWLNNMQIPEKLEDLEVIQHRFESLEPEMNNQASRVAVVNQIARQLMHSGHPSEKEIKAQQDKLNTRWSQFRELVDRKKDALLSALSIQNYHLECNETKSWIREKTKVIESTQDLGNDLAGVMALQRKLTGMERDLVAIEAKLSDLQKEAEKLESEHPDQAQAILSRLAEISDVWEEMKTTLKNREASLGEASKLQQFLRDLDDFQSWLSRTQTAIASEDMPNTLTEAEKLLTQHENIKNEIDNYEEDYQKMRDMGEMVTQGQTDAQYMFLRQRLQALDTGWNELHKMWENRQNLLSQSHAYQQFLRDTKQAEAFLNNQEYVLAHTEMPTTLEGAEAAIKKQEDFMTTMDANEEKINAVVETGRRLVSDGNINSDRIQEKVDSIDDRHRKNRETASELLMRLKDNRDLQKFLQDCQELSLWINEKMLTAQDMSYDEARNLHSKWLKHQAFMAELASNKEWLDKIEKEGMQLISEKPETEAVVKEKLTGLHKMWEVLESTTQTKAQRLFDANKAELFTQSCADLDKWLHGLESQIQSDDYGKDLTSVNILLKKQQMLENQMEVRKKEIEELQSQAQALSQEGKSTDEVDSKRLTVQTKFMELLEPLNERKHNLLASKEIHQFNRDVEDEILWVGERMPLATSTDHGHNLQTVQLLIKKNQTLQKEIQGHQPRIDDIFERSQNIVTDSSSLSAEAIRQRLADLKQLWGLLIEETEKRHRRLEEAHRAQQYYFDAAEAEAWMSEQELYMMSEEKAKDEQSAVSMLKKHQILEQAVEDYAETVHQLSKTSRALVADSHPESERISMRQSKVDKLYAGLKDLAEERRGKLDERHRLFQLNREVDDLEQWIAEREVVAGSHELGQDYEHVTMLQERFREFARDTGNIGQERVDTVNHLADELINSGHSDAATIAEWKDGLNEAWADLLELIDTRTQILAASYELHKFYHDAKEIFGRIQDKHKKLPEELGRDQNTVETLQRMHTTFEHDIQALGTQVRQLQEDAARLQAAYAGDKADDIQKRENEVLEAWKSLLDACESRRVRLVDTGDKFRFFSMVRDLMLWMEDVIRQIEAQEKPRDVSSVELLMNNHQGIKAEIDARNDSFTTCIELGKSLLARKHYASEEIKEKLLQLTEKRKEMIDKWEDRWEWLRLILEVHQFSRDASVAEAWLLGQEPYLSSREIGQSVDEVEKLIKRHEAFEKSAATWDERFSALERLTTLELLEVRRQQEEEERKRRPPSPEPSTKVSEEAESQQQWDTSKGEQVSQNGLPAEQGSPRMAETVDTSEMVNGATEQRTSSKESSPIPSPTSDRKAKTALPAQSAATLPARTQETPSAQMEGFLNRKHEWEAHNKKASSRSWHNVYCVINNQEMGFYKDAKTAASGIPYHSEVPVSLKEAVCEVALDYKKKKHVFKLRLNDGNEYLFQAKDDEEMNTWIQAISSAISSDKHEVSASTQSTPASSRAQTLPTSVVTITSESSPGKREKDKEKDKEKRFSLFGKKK

Results are given in words; binding and its absence hold for the method and conditions named. Binding seen in cells or lysates may run through a third protein. These calls come from enrichment with a bait or labelling near it, and not all partners need be listed.

As for “Spectrin-αII-chain (SPTAN1) (from UniProt Q13813 1-2472)”, the binding result is recorded as “binds”.
In the case of “Spectrin-βII-chain (SPTBN1) (from UniProt Q01082 1-2364)”, the binding result was “binds”.

The record behind these values is PMC10707054.
